# Test results: the supplement of paper PMC8728848
# The other results are listed elsewhere or left out.
# B1: Ovorubin (Pomacea canaliculata), J7I2T6 (protein)
# chain: MFVATSLLLAIATLVVRASPHNYLIMDIEPPKSVSERDILNLLSPLQVKHSFRVTGSTRLLIVIRLDAQSYEKLDEITVPGKVEVIPAVNMADTMERCGVSWPRVELTDDNVTLFESESTLTDVTKEQLKAMLIGYGEHMSGLLQAHRFEYYQAAGATPHRHFVFVNSVPDEIEVFGREGVDIWGGPGEFVVKPQYVTRI
# What was measured:
# Test in all cases: glycan array binding signal (z-score within array); higher = stronger binding
# Settings in all cases: glycan notation: IUPAC condensed, linker removed
# [1] = molecular target: Fuc(a1-2)Gal(b1-4)GlcNAc(b1-3)Gal(b1-4)GlcNAc(b1-2)Man(a1-3)[Fuc(a1-2)Gal(b1-4)GlcNAc(b1-3)Gal(b1-4)GlcNAc(b1-2)Man(a1-6)]Man(b1-4)GlcNAc(b1-4)GlcNAc
# Procedure, shortened: (§1)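 Columns mapping to the same glycan were averaged after glycan names were converted to IUPAC-condensed notation. The data come from 3228 arrays in the Consortium for Functional Glycomics database, limited to those with an available protein sequence. Binding is reported as a within-array Z-score averaged across arrays of one protein sequence and across linkers.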
# [2] = molecular target: Fuc(a1-2)Gal(b1-4)GlcNAc(b1-3)Gal(b1-4)GlcNAc(b1-3)Gal(b1-4)GlcNAc
# Procedure, shortened: as §1
# [3] = molecular target: Fuc(a1-2)Gal(b1-4)GlcNAc(b1-3)GalNAc
# Procedure, shortened: as §1
# [4] = molecular target: Fuc(a1-2)Gal(b1-4)GlcNAc(b1-3)[Fuc(a1-2)Gal(b1-4)GlcNAc(b1-6)]GalNAc
# Procedure, shortened: as §1
# [5] = molecular target: Fuc(a1-2)Gal(b1-4)GlcNAc(b1-3)[Fuc(a1-3)[Gal(b1-4)]GlcNAc(b1-6)]Gal(b1-4)Glc
# Procedure, shortened: as §1
# [6] = molecular target: Fuc(a1-2)Gal(b1-4)GlcNAc(b1-6)GalNAc
# Procedure, shortened: as §1
# [7] = molecular target: Fuc(a1-2)Gal(b1-4)GlcNAc6S
# Procedure, shortened: as §1
# [8] = molecular target: Fuc(a1-2)Gal(b1-4)[Fuc(a1-3)]GlcNAc
# Procedure, shortened: as §1
# [9] = molecular target: Fuc(a1-2)Gal(b1-4)[Fuc(a1-3)]GlcNAc(b1-2)Man(a1-3)[Fuc(a1-2)Gal(b1-4)[Fuc(a1-3)]GlcNAc(b1-2)Man(a1-6)]Man(b1-4)GlcNAc(b1-4)[Fuc(a1-6)]GlcNAc
# Procedure, shortened: as §1
# [10] = molecular target: Fuc(a1-2)Gal(b1-4)[Fuc(a1-3)]GlcNAc(b1-2)[Fuc(a1-2)Gal(b1-4)[Fuc(a1-3)]GlcNAc(b1-4)]Man(a1-3)[Fuc(a1-2)Gal(b1-4)[Fuc(a1-3)]GlcNAc(b1-2)Man(a1-6)]Man(b1-4)GlcNAc(b1-4)GlcNAc
# Procedure, shortened: as §1
# [11] = molecular target: Fuc(a1-2)Gal(b1-4)[Fuc(a1-3)]GlcNAc(b1-3)Gal(b1-4)[Fuc(a1-3)]GlcNAc
# Procedure, shortened: as §1
# [12] = molecular target: Fuc(a1-2)Gal(b1-4)[Fuc(a1-3)]GlcNAc(b1-3)Gal(b1-4)[Fuc(a1-3)]GlcNAc(b1-3)Gal(b1-4)[Fuc(a1-3)]GlcNAc
# Procedure, shortened: as §1
# [13] = molecular target: Fuc(a1-2)Gal(b1-4)[Fuc(a1-3)]GlcNAc(b1-3)GalNAc
# Procedure, shortened: as §1
# [14] = molecular target: Fuc(a1-2)Gal(b1-4)[Fuc(a1-3)]GlcNAc(b1-3)[Neu5Ac(a2-6)Gal(b1-4)GlcNAc(b1-6)]Gal(b1-4)Glc
# Procedure, shortened: as §1
# [15] = molecular target: Fuc(a1-2)Gal3S(b1-4)GlcNAc
# Procedure, shortened: as §1
# [16] = molecular target: Fuc(a1-2)Gal6S(b1-3)GlcNAc
# Procedure, shortened: as §1
# [17] = molecular target: Fuc(a1-2)Gal6S(b1-3)GlcNAc6S
# Procedure, shortened: as §1
# Fuc(a1-2)Gal6S(b1-4)Glc = molecular target: Fuc(a1-2)Gal6S(b1-4)Glc
# Procedure, shortened: as §1
# [18] = molecular target: Fuc(a1-2)Gal6S(b1-4)Glc6S
# Procedure, shortened: as §1
# Fuc(a1-2)[Gal(a1-3)]Gal = molecular target: Fuc(a1-2)[Gal(a1-3)]Gal
# Procedure, shortened: as §1
# [19] = molecular target: Fuc(a1-2)[Gal(a1-3)]Gal(b1-3)GalNAc
# Procedure, shortened: as §1
# [20] = molecular target: Fuc(a1-2)[Gal(a1-3)]Gal(b1-3)GalNAc(b1-3)Gal(a1-4)Gal(b1-4)Glc
# Procedure, shortened: as §1
# [21] = molecular target: Fuc(a1-2)[Gal(a1-3)]Gal(b1-3)GlcNAc
# Procedure, shortened: as §1
# [22] = molecular target: Fuc(a1-2)[Gal(a1-3)]Gal(b1-3)GlcNAc(b1-2)Man(a1-3)[Fuc(a1-2)[Gal(a1-3)]Gal(b1-3)GlcNAc(b1-2)Man(a1-6)]Man(b1-4)GlcNAc(b1-4)GlcNAc
# Procedure, shortened: as §1
# [23] = molecular target: Fuc(a1-2)[Gal(a1-3)]Gal(b1-3)GlcNAc(b1-2)Man(a1-3)[Fuc(a1-2)[Gal(a1-3)]Gal(b1-3)GlcNAc(b1-2)Man(a1-6)]Man(b1-4)GlcNAc(b1-4)[Fuc(a1-6)]GlcNAc
# Procedure, shortened: as §1
# [24] = molecular target: Fuc(a1-2)[Gal(a1-3)]Gal(b1-3)GlcNAc(b1-3)GalNAc
# Procedure, shortened: as §1
# [25] = molecular target: Fuc(a1-2)[Gal(a1-3)]Gal(b1-3)GlcNAc(b1-6)GalNAc
# Procedure, shortened: as §1
# [26] = molecular target: Fuc(a1-2)[Gal(a1-3)]Gal(b1-4)Glc
# Procedure, shortened: as §1
# [27] = molecular target: Fuc(a1-2)[Gal(a1-3)]Gal(b1-4)GlcNAc
# Procedure, shortened: as §1
# [28] = molecular target: Fuc(a1-2)[Gal(a1-3)]Gal(b1-4)GlcNAc(b1-2)Man
# Procedure, shortened: as §1
# [29] = molecular target: Fuc(a1-2)[Gal(a1-3)]Gal(b1-4)GlcNAc(b1-2)Man(a1-3)[Fuc(a1-2)[Gal(a1-3)]Gal(b1-4)GlcNAc(b1-2)Man(a1-6)]Man(b1-4)GlcNAc(b1-4)GlcNAc
# Procedure, shortened: as §1
# [30] = molecular target: Fuc(a1-2)[Gal(a1-3)]Gal(b1-4)GlcNAc(b1-2)Man(a1-3)[Fuc(a1-2)[Gal(a1-3)]Gal(b1-4)GlcNAc(b1-2)Man(a1-6)]Man(b1-4)GlcNAc(b1-4)[Fuc(a1-6)]GlcNAc
# Procedure, shortened: as §1
# [31] = molecular target: Fuc(a1-2)[Gal(a1-3)]Gal(b1-4)GlcNAc(b1-3)GalNAc
# Procedure, shortened: as §1
# [32] = molecular target: Fuc(a1-2)[Gal(a1-3)]Gal(b1-4)GlcNAc(b1-3)[Fuc(a1-2)[Gal(a1-3)]Gal(b1-4)GlcNAc(b1-6)]GalNAc
# Procedure, shortened: as §1
# [33] = molecular target: Fuc(a1-2)[Gal(a1-3)]Gal(b1-4)GlcNAc(b1-6)GalNAc
# Procedure, shortened: as §1
# [34] = molecular target: Fuc(a1-2)[Gal(a1-3)]Gal(b1-4)[Fuc(a1-3)]Glc
# Procedure, shortened: as §1
# [35] = molecular target: Fuc(a1-2)[Gal(a1-3)]Gal(b1-4)[Fuc(a1-3)]GlcNAc
# Procedure, shortened: as §1
# [36] = molecular target: Fuc(a1-2)[Gal(a1-3)]Gal(b1-4)[Fuc(a1-3)]GlcNAc(b1-3)GalNAc
# Procedure, shortened: as §1
# [37] = molecular target: Fuc(a1-2)[Gal(a1-4)]Gal(b1-4)GlcNAc
# Procedure, shortened: as §1
# [38] = molecular target: Fuc(a1-2)[GalNAc(a1-3)]Gal
# Procedure, shortened: as §1
# [39] = molecular target: Fuc(a1-2)[GalNAc(a1-3)]Gal(b1-3)GalNAc(a1-3)[Fuc(a1-2)]Gal(b1-4)GlcNAc
# Procedure, shortened: as §1
# [40] = molecular target: Fuc(a1-2)[GalNAc(a1-3)]Gal(b1-3)GalNAc(b1-3)Gal(a1-4)Gal(b1-4)Glc
# Procedure, shortened: as §1
# [41] = molecular target: Fuc(a1-2)[GalNAc(a1-3)]Gal(b1-3)GlcNAc
# Procedure, shortened: as §1
# [42] = molecular target: Fuc(a1-2)[GalNAc(a1-3)]Gal(b1-3)GlcNAc(b1-2)Man(a1-3)[Fuc(a1-2)[GalNAc(a1-3)]Gal(b1-3)GlcNAc(b1-2)Man(a1-6)]Man(b1-4)GlcNAc(b1-4)GlcNAc
# Procedure, shortened: as §1
# [43] = molecular target: Fuc(a1-2)[GalNAc(a1-3)]Gal(b1-3)GlcNAc(b1-2)Man(a1-3)[Fuc(a1-2)[GalNAc(a1-3)]Gal(b1-3)GlcNAc(b1-2)Man(a1-6)]Man(b1-4)GlcNAc(b1-4)[Fuc(a1-6)]GlcNAc
# Procedure, shortened: as §1
binder,measurement,setting,value
B1,glycan array binding signal (z-score),[1],0.865
same,glycan array binding signal (z-score),[2],-0.028
same,glycan array binding signal (z-score),[3],-0.197
same,glycan array binding signal (z-score),[4],0.194
same,glycan array binding signal (z-score),[5],-0.468
same,glycan array binding signal (z-score),[6],0.848
same,glycan array binding signal (z-score),[7],0.049
same,glycan array binding signal (z-score),[8],-0.814
same,glycan array binding signal (z-score),[9],0.428
same,glycan array binding signal (z-score),[10],0.485
same,glycan array binding signal (z-score),[11],-0.813
same,glycan array binding signal (z-score),[12],1.19
same,glycan array binding signal (z-score),[13],0.701
same,glycan array binding signal (z-score),[14],-0.213
same,glycan array binding signal (z-score),[15],-0.963
same,glycan array binding signal (z-score),[16],0.343
same,glycan array binding signal (z-score),[17],0.265
same,glycan array binding signal (z-score),Fuc(a1-2)Gal6S(b1-4)Glc,-0.235
same,glycan array binding signal (z-score),[18],0.236
same,glycan array binding signal (z-score),Fuc(a1-2)[Gal(a1-3)]Gal,-0.016
same,glycan array binding signal (z-score),[19],-0.033
same,glycan array binding signal (z-score),[20],-0.178
same,glycan array binding signal (z-score),[21],-0.405
same,glycan array binding signal (z-score),[22],-0.045
same,glycan array binding signal (z-score),[23],-0.182
same,glycan array binding signal (z-score),[24],0.287
same,glycan array binding signal (z-score),[25],0.121
same,glycan array binding signal (z-score),[26],0.11
same,glycan array binding signal (z-score),[27],-0.498
same,glycan array binding signal (z-score),[28],0.602
same,glycan array binding signal (z-score),[29],-0.156
same,glycan array binding signal (z-score),[30],0.141
same,glycan array binding signal (z-score),[31],1.88
same,glycan array binding signal (z-score),[32],1.27
same,glycan array binding signal (z-score),[33],0.091
same,glycan array binding signal (z-score),[34],-0.479
same,glycan array binding signal (z-score),[35],-0.405
same,glycan array binding signal (z-score),[36],-0.704
same,glycan array binding signal (z-score),[37],-0.639
same,glycan array binding signal (z-score),[38],-0.52
same,glycan array binding signal (z-score),[39],-0.862
same,glycan array binding signal (z-score),[40],-0.914
same,glycan array binding signal (z-score),[41],0.15
same,glycan array binding signal (z-score),[42],-0.695
same,glycan array binding signal (z-score),[43],-0.668

# Two entries drawn at random from those above, as already listed:
binder,measurement,setting,value
B1,glycan array binding signal (z-score),[12],1.19
same,glycan array binding signal (z-score),[24],0.287
